PubChem BioAssay AID652259 – Drosophila RNAi Screening Center, 2013
Assay: 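Genome-wide hunt for genes that control Wingless pathway activity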 (primary screen). Cell system: Drosophila clone 8 imaginal disc epithelial cells. Reagents: long dsRNA against Drosophila genes. Conditions: pathway stimulated by co-transfected Wingless expression plasmid. Measurement: 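Firefly luciferase from a tcf-site Wingless reporter, measured alongside co-transfected Renilla luciferase that tracks transfection; pathway stimulated by a Wingless plasmid; the firefly-to-Renilla ratio is not deposited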. Reading the numbers: firefly reporter light: higher = more Wg reporter light, before normalisation; Renilla control light: higher = more transfected or surviving cells. Hit rule: 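a knock-down is a candidate when at least two out of four statistical tests show it departing from its plate mean; one test alone signals a weak candidate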. Meaning of the calls: active = candidate regulator (raises or lowers reporter); inactive = not a candidate.
In all, the deposit lists about 22,000 reagents; shown is an unselected part of those that have a named target and a result. In the full data, 233 (1.1%) got an active call. 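Light values are raw, unnormalised plate reads; the ratio scores behind the reporter calls were not deposited.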 A number with no mark means an inactive call. A plus sign joins genes that one reagent is predicted to hit. Not given: the amount of reagent, the time to read-out, the dose of the treatment.

Target gene	DRSC id	firefly reporter light, replicate 1	firefly reporter light, replicate 2	Renilla control light, replicate 1	Renilla control light, replicate 2
Pdhb	DRSC14420	1923	9095	896	3378
Acbp5	DRSC10548	2000	11256	1025	3904
TpnC25D	DRSC02965	3696	7200	1209	1675
Usp39	DRSC20032	3709	10556	928	2553
TwdlL	DRSC16042	2445	10231	1283	3436
CG8814	DRSC00707	12669		5427	
CG1344	DRSC04837	8844		3044	
CG5506	DRSC10511	6360		2738	
CAH3	DRSC17776	17608		9307	
CG18048	DRSC12573	15030		3777	
Atu	DRSC12123	5353		2645	
Hex-t2	DRSC22517	8.03e5	7.79e5	1.32e5	1.50e5
lama	DRSC11361	4503		1301	
Cbl	DRSC10764	1490	10813	1200	3668
Cbl	DRSC11111	1465	5056	1016	2261
Rhau	DRSC03200	9809		2903	
ACXA	DRSC00844	2488	8298	1334	4486
CG5768	DRSC15870	2989	4907	1590	2003
CG42680	DRSC01399	17851		9324	
Obp28a	DRSC03394	1954	6297	372	3267
Cnx99A + Cnx14D	DRSC16610	5037		1943	
gce	DRSC19613	20341		12732	
gce	DRSC19974	11315		7975	
CG13917	DRSC08386	18028	7.48e5	6087	3.41e5
Brd	DRSC09685	10228		2753	
CG14881	DRSC15005	12496		2816	
CG31556 (retired record)	DRSC12122	4705		2053	
CG31556 (retired record)	DRSC22177	7.23e5	7.38e5	3.58e5	3.20e5
CG17242	DRSC00493	2050	5203	812	1953

Records above whose target name starts with T or t (2):
Target gene	DRSC id	firefly reporter light, replicate 1	firefly reporter light, replicate 2	Renilla control light, replicate 1	Renilla control light, replicate 2
TpnC25D	DRSC02965	3696	7200	1209	1675
TwdlL	DRSC16042	2445	10231	1283	3436
